From PubChem BioAssay (EPA / NIEHS)
Where “and” joins values, the source holds several entries; their conditions need not be identical. Equal entries are not always repeated. The inconclusive results got no clear call from the source; some entries with a clear call stand among them for comparison. Potencies beside an inconclusive call are fits to weak or partial responses and may not hold up. Calls of active or inactive are those of the source. Rule for the calls: active = hit-call score of the fitted dose curve at least 0.9, where 1 is the maximum; inconclusive = response in the unintended direction; inactive = score below 0.9.

Test: ACEA_ER_AUC_viability: ACEA Biosciences xCELLigence Real-Time Cell Analysis on Estrogen Receptor Agonism for Viability (AID 2283782);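 note: hit means loss of impedance signal meaning reduced cell growth or viability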
Method in brief: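 Continuous-exposure impedance cell analysis uses T-47D cells in charcoal-stripped serum, eight 1:4 dilutions topping at 100 uM final, biological duplicate. Area under the growth curve at 80 h is fitted against DMSO baseline.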
With `O=c1c(O)c(-c2ccc(O)cc2O)oc2cc(O)cc(O)c12` the AC50 was inconclusive: 36.5 µM.
With `CCCc1ccc(O)cc1` the AC50 was inconclusive: 50 µM.
For `O=C1C=CC(=O)N1c1cccc(N2C(=O)C=CC2=O)c1`, the AC50 was active: 23.6 µM.
With `Cc1cncc(C)c1` the AC50 was active: 12.1 µM.
For `O=C(OCCCCCCOC(=O)c1ccccc1)c1ccccc1`, the outcome was “inactive”.
In the case of `O=C(O)c1cccc(C(=O)O)c1`, the AC50 is reported as inconclusive: 50 µM.
In the case of `Nc1nc(N)c2nc(-c3ccccc3)c(N)nc2n1`, the AC50 is reported as inconclusive: 61.5 µM.
For `CCCCCC(=O)O[C@]1(C(C)=O)CC[C@H]2[C@@H]3CCC4=CC(=O)CC[C@]4(C)[C@H]3CC[C@@]21C`, the AC50 was active: 49.8 µM.
With `O=Nc1ccc(Nc2ccccc2)cc1` the AC50 was active: 11.1 µM.
With `NC(CO)(CO)CO` the outcome was “inactive”.
With `C=CC(C)(CCC=C(C)C)OC=O` (centres undefined) the outcome was “inactive”.
For `O=c1cccc[nH]1`, the AC50 was inconclusive: 0.105 µM.
For `COc1nc(C)nc(N)n1`, the AC50 was inconclusive: 6.38 µM.
With `NS(=O)(=O)c1cc2c(cc1Cl)NCNS2(=O)=O` the AC50 was inconclusive: 20.1 µM.
With `CCOCC(C)O` (centres undefined) the AC50 was inconclusive: 50 µM.
With `[Cl][Dy]([Cl])[Cl]` the AC50 was inconclusive: 0.0315 µM.
With `OCC(F)(OC(F)(F)C(F)(OC(F)(F)C(F)(F)C(F)(F)F)C(F)(F)F)C(F)(F)F` (centres undefined) the AC50 was inconclusive: 6.65 µM.
With `CCCCOCC(C)O` (centres undefined) the AC50 was inconclusive: 0.0519 µM.
With `O=C(O)C(F)(F)OC(F)(F)C(F)(F)OC(F)(F)C(F)(F)OC(F)(F)F` the AC50 was inconclusive: 12.7 µM.
In the case of `CCCCCCOC(=O)c1ccccc1`, the AC50 is reported as inconclusive: 0.00499 µM.
In the case of `N[C@@H](Cc1cc(I)c(Oc2ccc(O)c(I)c2)c(I)c1)C(=O)O`, the AC50 is reported as inconclusive: 40 µM and inconclusive: 15.8 µM and inconclusive: 8.56 µM.
In the case of `CC(C)(C)c1cc(/C=C2\SC(N)=NC2=O)cc(C(C)(C)C)c1O`, the AC50 is reported as active: 31.6 µM.
For `COC(=O)c1ccccc1C(=O)O`, the AC50 was inconclusive: 0.0461 µM.
For `CNC(=S)NN`, the outcome was “inactive”.
With `O=C(O)c1ccccc1-n1cc(C(=O)O)c(=O)c2cc(Nc3c(F)cc(F)cc3Cl)c(Cl)cc21` the outcome was “inactive”.
With `c1ccc(CCCc2ccccn2)cc1` the outcome was “inactive”.
In the case of `Nc1cccc(C(F)(F)F)c1`, the outcome is reported as “inactive”.
In the case of `OC1CCC(C2CCCCC2)CC1` (centres undefined), the AC50 is reported as active: 83 µM and active: 84.8 µM and active: 86.7 µM.
For `COC(=O)c1ccc(O)cc1`, the AC50 was inconclusive: 50 µM.
With `C[C@@H]1C[C@H]2[C@@H]3CCC4=CC(=O)C=C[C@]4(C)[C@@]3(F)[C@@H](O)C[C@]2(C)[C@@]1(O)C(=O)COP(=O)(O)O` the AC50 was inconclusive: 54 nM and inconclusive: 592 nM.
For `Cc1cccc(O)c1`, the AC50 was inconclusive: 50 µM.
With `C=C(C)C(=O)O[C@H]1C[C@@H]2CC[C@@]1(C)C2(C)C` the outcome was “inactive”.
With `CC(=O)[O][Al][O]C(C)=O` the AC50 was active: 9.92 µM.
In the case of `NCCN1CCNCC1`, the AC50 is reported as inconclusive: 10.7 µM.
In the case of `O=C1CCCCCCCCCCCN1`, the AC50 is reported as inconclusive: 17 µM.
For `Nc1ccc(S(=O)(=O)c2ccc(N)cc2)cc1`, the AC50 was inconclusive: 50 µM.
For `C=CC(F)(F)C(F)(F)C(F)(F)C(F)(F)C(F)(F)C(F)(F)C(F)(F)C(F)(F)C=C`, the outcome was “inactive”.
With `CCCCCCCCCCC=CC#N` the AC50 was active: 50 µM.
In the case of `CCCCOCCOC(=O)COc1ccc(Cl)cc1Cl`, the AC50 is reported as inconclusive: 10.8 µM.
